Measurements from PubChem BioAssay AID504467 (National Center for Advancing Translational Sciences (NCATS), 2011).
Among all 330,000 compounds or so, about 7,700 (2.3%) were called active. The inconclusive results got no clear call from the source; some entries with a clear call stand among them for comparison. Calls follow the shape of the dose curve; as a rule, active = well fitted inhibition curve with a large enough effect; inconclusive = small, poorly fitted or top-dose-only effect, or effect the other way; inactive = flat fitted curve, though single readings scatter. Potencies beside an inconclusive call are fits to weak or partial responses and may not hold up.

Assay: qHTS screen for small molecules that inhibit ELG1-dependent DNA repair in human embryonic kidney (HEK293T) cells expressing luciferase-tagged ELG1; also: nearly all actives have a fitted effect of over 55% in size
Conditions: HEK293T ELG1-luciferase reporter, luminescence, 16 h, DNA damage induced by 5-fluorouridine; series mostly up to 46.1 µM
Procedure, shortened: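 Quantitative HTS, concentration-response format. 2,000 cells/well co-treated with 5-fluorouridine and compound, 16 hr in 5% CO2 at 37 °C; ONE-Glo luminescence read after 30 min.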
Potency is read from the fitted curve at half-maximal effect.

Row | SMILES | Potency
1 | C=CCNC(=O)c1oc2ccc(S(=O)(=O)N3CCC4(CC3)OCCO4)cc2c1C | inconclusive: 32.6 µM [inhibitor, single point]
2 | O=[N+]([O-])c1ccc2nc(/C=C/c3ccc(Cl)cc3)[nH]c2c1 | inconclusive: 6.51 µM [activator, single point]
3 | O=C(Oc1ccccc1C(=O)Nc1ccccc1)c1ccccc1Br | inconclusive: 18.4 µM [activator, partial curve]
4 | CN(Cc1ccccc1)C(=O)c1ccc2c(c1)NC(=O)C(N1CCOCC1)S2 (stereo unspecified) | inconclusive: 20.6 µM [inhibitor, partial curve]
5 | CC1CN2C(c3ccc(Cl)cc3)=CSC2=N1 (stereo unspecified) | inactive
6 | COc1ccc(C(=O)Nc2ccccc2C(N)=O)cc1 | inconclusive: 7.31 µM [activator, partial curve]
7 | O=C(Nc1ccc([N+](=O)[O-])cc1)c1cc(Cl)sc1Cl | inactive
8 | O=C(Nc1ncc(Cc2ccc(Cl)cc2Cl)s1)c1ccc([N+](=O)[O-])cc1 | inactive
9 | CCOc1ccc(CCNC(=O)COC(=O)c2ccc(OC(C)C)cc2)cc1OCC | inactive
10 | Cc1cccc(CSC2=NCCN2C(=O)c2ccco2)c1 | inconclusive: 29.1 µM [inhibitor, single point]
11 | FC(F)(F)c1cccc(NC(=S)Nc2ccc(Cl)cc2Cl)c1 | inactive
12 | COc1ccc(OC)c(S(=O)(=O)Nc2ccc(-c3ccc4nnc(C)n4n3)cc2)c1 | inconclusive: 7.3 µM [activator, partial curve, poor fit]
13 | O=[N+]([O-])c1ccc(N=NNc2ccccc2)cc1 | inconclusive: 16.4 µM [activator, partial curve]
14 | Cc1ccc2c(C)nc(Nc3nc(CSc4nnc(C)s4)cc(=O)[nH]3)nc2c1 | inconclusive: 23.1 µM [inhibitor, partial curve]
15 | O=C(NC(=S)Nc1cc(C(F)(F)F)ccc1N1CCOCC1)c1ccco1 | inactive
16 | O=C(Nc1ccccc1N1CCN(C(=O)c2ccccc2)CC1)c1ccc2c(c1)OCO2 | inconclusive: 3.66 µM [inhibitor, single point]
17 | COc1ccccc1-c1c(C)nn2c(-c3ccccc3)cc(C)nc12 | inconclusive: 29.1 µM [inhibitor, partial curve, poor fit]
18 | C=CCn1c(SCC(=O)N2CCOCC2)nc2scc(-c3ccco3)c2c1=O | inconclusive: 20.6 µM [inhibitor, single point]
19 | CC1CC1c1ccc(/C=C(\C#N)C(=O)Nc2cccc(Cl)c2Cl)o1 (stereo unspecified) | inconclusive: 16.4 µM [activator, partial curve]
20 | Oc1ccc(/C=N/N(c2ccccc2)c2ccccc2)c(O)c1O | inactive
21 | CN(C)c1ccc(-c2ccc3c(=O)c4ccccc4n(C)c3c2)cn1 | inconclusive: 8.2 µM [activator, partial curve]
22 | CCn1nnc(NC(=S)NC(=O)c2ccc(-c3cccc(Cl)c3)o2)n1 | inactive
23 | O=C(Oc1ccc([N+](=O)[O-])cc1)c1cncc(Br)c1 | inconclusive: 9.2 µM [activator, partial curve, poor fit]
24 | Cc1[nH]c2ccccc2c1C(c1ccncc1)N1CCCCC1 (stereo unspecified) | inactive

Row | SMILES | Potency
25 | Cc1cc(NC(=O)CON=C(N)CC(=O)Nc2ccccc2Cl)ccc1Br | inactive
26 | CNC(=O)C(=O)Nc1cc2c3c(c1)CCC(=O)N3CCC2 | inconclusive: 18.3 µM [activator, partial curve, poor fit]
27 | COCCNC(=O)c1c(N)n(-c2ccccc2)c2nc3ccccc3nc12 | inconclusive: 18.4 µM [inhibitor, single point]
28 | CN(CCOc1ccccc1)CC(=O)Nc1ccc(Cl)c(S(=O)(=O)N(C)C)c1 | inconclusive: 18.3 µM [inhibitor, single point]
29 | COC(=O)c1oc(-c2ccc(Cl)cc2)nc1C | inconclusive: 23.1 µM [activator, partial curve, poor fit]
30 | COc1ccc(CNc2nc(S(=O)(=O)c3ccccc3)c(Cl)s2)cc1OC | inconclusive: 5.17 µM [inhibitor, full curve, poor fit]
31 | CCOC(=O)CSC1=C(C#N)C(c2ccco2)C(C(=O)Nc2cccc(C(F)(F)F)c2)=C(C)N1 (stereo unspecified) | inconclusive: 18.4 µM [inhibitor, partial curve, poor fit]
32 | S=c1nc[nH]c2c1cnn2-c1ccccc1 | inconclusive: 2.06 µM [activator, full curve]
33 | CCOc1ccc(N=CNc2ccc(OCC)cc2)cc1 | inactive
34 | CC(CCCC(C)(C)O)NC(=O)c1cc(COc2ccc3ncccc3c2)on1 (stereo unspecified) | active: 2.59 µM
35 | CCOC(=O)C1=C(C)N(C[C@@H]2CC[C@@H](Cc3ccc(-c4ccccc4)cc3)O2)C(=O)NC1C1CC1 (stereo partly specified) | inconclusive: 25.9 µM [inhibitor, partial curve, poor fit]
36 | CC(C)(C)c1ccc(NC(=O)C(=O)C2C(=O)Nc3ccccc32)cc1 (stereo unspecified) | inactive
37 | Cn1c(CCNC(=O)c2ccccc2)nc2cc(NC(=O)C3CCCCC3)ccc21 | inconclusive: 4.11 µM [inhibitor, single point]
38 | COc1cc(/C=N\Nc2nc(-c3ccc(C)cc3)c(NC(C)=O)s2)ccc1O | inconclusive: 9.2 µM [inhibitor, partial curve]
39 | CSc1ncccc1C(=O)Nc1ccc(OC(F)(F)F)cc1 | inactive
40 | C[C@@H]1CC=C[C@H]2[C@H]1C(=O)N(Cc1ccccc1)[C@H]2c1ccc2ccccc2c1/C=C/c1ccccc1 | inactive
41 | CCC(C)NC(=O)Cc1c(C)c2cc3c(cc2oc1=O)OC(C)(C)CC3 (stereo unspecified) | inconclusive: 10.3 µM [activator, partial curve]
42 | CC(C)Oc1ccc(C(=O)Nc2nc3ccccc3[nH]2)cc1 | inconclusive: 0.116 µM [activator, full curve, poor fit]
43 | CCOC(=O)N1CCN(C(=O)CCc2ccc(S(=O)(=O)NCCc3ccccc3)cc2)CC1 | active: 14.6 µM
44 | COc1cccc(NC(=O)c2cc(OC)c(OC)c(OC)c2Br)c1 | inconclusive: 14.6 µM [inhibitor, partial curve, poor fit]
45 | CCOc1ccccc1CNC(=O)c1ccc(NC(=O)C2=C(C)OCCS2)cc1 | inconclusive: 29.1 µM [inhibitor, single point]
46 | CCn1c(SCc2ccc(C#N)cc2)nnc1-c1cccc(Cl)c1 | inconclusive: 16.4 µM [inhibitor, single point]
47 | CCN(CC)S(=O)(=O)N1CCC(C(=O)NCc2ccco2)CC1 | inactive
48 | Cc1cc(C(=O)CN2C(=O)NC3(CCCCC3)C2=O)c(C)n1Cc1ccco1 | inconclusive: 9.2 µM [activator, partial curve]

Row | SMILES | Potency
49 | Cc1ccc(C(=O)c2c(C)oc3c2C(=O)C(=O)c2ccccc2-3)cc1 | inconclusive: 25.9 µM [inhibitor, single point]
50 | COc1ccc(OCc2nnc3n2N=C(c2ccc(Br)cc2)CS3)cc1 | inconclusive: 20.6 µM [inhibitor, single point]
51 | COCC(=O)NCCSc1c(C)[nH]c2ccccc12 | inactive
52 | CCCCNC(=O)c1nn2cc(Br)cnc2c1Br | inactive
53 | O=C(O)CCCN1C(=O)/C(=C\c2ccccc2OCc2ccccc2)SC1=S | inactive
54 | O=C(COC(=O)c1cc2ccccc2o1)c1ccccc1 | inactive
55 | Cc1cc(C2=NNC(=NC3CC3)SC2)c(C)n1Cc1ccco1 | inconclusive: 16.4 µM [inhibitor, partial curve, poor fit]
56 | O=C(Cn1nnc(N2CCCC2)n1)N/N=C/c1ccc(Cl)cc1 | inconclusive: 3.66 µM [activator, partial curve, poor fit]
57 | CCOC(=O)c1c(C)oc2ccc(OCC(=O)N(CC)CC)cc12 | inconclusive: 20.6 µM [inhibitor, single point]
58 | COc1ccc(CCC(=O)NNC(=O)Nc2ccccc2Cl)cc1 | inactive
59 | Cc1ccc(C2=N/C(=C\c3ccc(F)cc3)C(=O)N2)cc1 | inconclusive: 16.4 µM [activator, partial curve, poor fit]
60 | Cn1cc(/C=C2/SC(=O)N(c3ccccc3)C2=O)c2ccccc21 | inconclusive: 3.26 µM [activator, full curve]
61 | COc1ccc(/C=N\NS(=O)(=O)c2ccc(C)cc2)cc1COc1ccccc1[N+](=O)[O-] | active: 16.4 µM
62 | O=c1c2ccccc2[nH]c(=S)n1Cc1ccccc1 | inactive
63 | Cc1cc2c(cc1C)NC(CC(=O)NCc1ccccc1)C(=O)N2 (stereo unspecified) | inconclusive: 18.4 µM [activator, single point]
64 | COc1ccc(C(=O)Nc2ccccc2C(=O)NC(C)C)cc1OC | active: 18.4 µM
65 | O=C(NC1CCCCC1)c1n[nH]c2c1CC(c1ccccc1)CC2 (stereo unspecified) | inconclusive: 3.16 µM [activator, partial curve]
66 | COc1ccc(-n2c(-c3ccc(Cl)cc3)c[n+]3c2CCc2ccccc2-3)cc1 | active: 2.31 µM
67 | COc1ccc2c(C)c(Cl)c(=O)oc2c1 | inactive
68 | CCOc1nc(NCc2ccco2)nc(Nc2ccccc2F)n1 | inconclusive: 20.6 µM [activator, partial curve]
69 | COc1ccc(NC(=O)Nc2ccc(OC)cc2)cc1 | inconclusive: 7.31 µM [activator, partial curve]
70 | CC1CCN(c2nc3ccc(C(=O)NCCCN4CCCCC4C)cc3s2)CC1 (stereo unspecified) | inconclusive: 0.13 µM [activator, full curve, poor fit]
71 | O=C(Nc1nc(N2C(=O)c3ccccc3C2=O)n(-c2ccccc2)n1)c1ccc(F)cc1 | inactive

21 entries from above in another layout:
Row	SMILES	Potency
7	O=C(Nc1ccc([N+](=O)[O-])cc1)c1cc(Cl)sc1Cl	inactive
8	O=C(Nc1ncc(Cc2ccc(Cl)cc2Cl)s1)c1ccc([N+](=O)[O-])cc1	inactive
12	COc1ccc(OC)c(S(=O)(=O)Nc2ccc(-c3ccc4nnc(C)n4n3)cc2)c1	inconclusive: 7.3 µM [activator, partial curve, poor fit]
13	O=[N+]([O-])c1ccc(N=NNc2ccccc2)cc1	inconclusive: 16.4 µM [activator, partial curve]
14	Cc1ccc2c(C)nc(Nc3nc(CSc4nnc(C)s4)cc(=O)[nH]3)nc2c1	inconclusive: 23.1 µM [inhibitor, partial curve]
16	O=C(Nc1ccccc1N1CCN(C(=O)c2ccccc2)CC1)c1ccc2c(c1)OCO2	inconclusive: 3.66 µM [inhibitor, single point]
20	Oc1ccc(/C=N/N(c2ccccc2)c2ccccc2)c(O)c1O	inactive
21	CN(C)c1ccc(-c2ccc3c(=O)c4ccccc4n(C)c3c2)cn1	inconclusive: 8.2 µM [activator, partial curve]
25	Cc1cc(NC(=O)CON=C(N)CC(=O)Nc2ccccc2Cl)ccc1Br	inactive
28	CN(CCOc1ccccc1)CC(=O)Nc1ccc(Cl)c(S(=O)(=O)N(C)C)c1	inconclusive: 18.3 µM [inhibitor, single point]
35	CCOC(=O)C1=C(C)N(C[C@@H]2CC[C@@H](Cc3ccc(-c4ccccc4)cc3)O2)C(=O)NC1C1CC1 (stereo partly specified)	inconclusive: 25.9 µM [inhibitor, partial curve, poor fit]
36	CC(C)(C)c1ccc(NC(=O)C(=O)C2C(=O)Nc3ccccc32)cc1 (stereo unspecified)	inactive
40	C[C@@H]1CC=C[C@H]2[C@H]1C(=O)N(Cc1ccccc1)[C@H]2c1ccc2ccccc2c1/C=C/c1ccccc1	inactive
46	CCn1c(SCc2ccc(C#N)cc2)nnc1-c1cccc(Cl)c1	inconclusive: 16.4 µM [inhibitor, single point]
53	O=C(O)CCCN1C(=O)/C(=C\c2ccccc2OCc2ccccc2)SC1=S	inactive
58	COc1ccc(CCC(=O)NNC(=O)Nc2ccccc2Cl)cc1	inactive
61	COc1ccc(/C=N\NS(=O)(=O)c2ccc(C)cc2)cc1COc1ccccc1[N+](=O)[O-]	active: 16.4 µM
62	O=c1c2ccccc2[nH]c(=S)n1Cc1ccccc1	inactive
64	COc1ccc(C(=O)Nc2ccccc2C(=O)NC(C)C)cc1OC	active: 18.4 µM
67	COc1ccc2c(C)c(Cl)c(=O)oc2c1	inactive
68	CCOc1nc(NCc2ccco2)nc(Nc2ccccc2F)n1	inconclusive: 20.6 µM [activator, partial curve]

Some values from above:
Entry of Cc1ccc2c(C)nc(Nc3nc(CSc4nnc(C)s4)cc(=O)[nH]3)nc2c1 under Potency: inconclusive: 23.1 µM [inhibitor, partial curve]
Entry of O=[N+]([O-])c1ccc2nc(/C=C/c3ccc(Cl)cc3)[nH]c2c1 under Potency: inconclusive: 6.51 µM [activator, single point]
